# Results taken from PubChem BioAssay AID588590 (National Center for Advancing Translational Sciences (NCATS), 2011).
# Amino acid sequences for entries named in this document (tags omitted). A change or cut given only in a name is not applied to a line headed by its entry.
# UniProt Q9UNA4: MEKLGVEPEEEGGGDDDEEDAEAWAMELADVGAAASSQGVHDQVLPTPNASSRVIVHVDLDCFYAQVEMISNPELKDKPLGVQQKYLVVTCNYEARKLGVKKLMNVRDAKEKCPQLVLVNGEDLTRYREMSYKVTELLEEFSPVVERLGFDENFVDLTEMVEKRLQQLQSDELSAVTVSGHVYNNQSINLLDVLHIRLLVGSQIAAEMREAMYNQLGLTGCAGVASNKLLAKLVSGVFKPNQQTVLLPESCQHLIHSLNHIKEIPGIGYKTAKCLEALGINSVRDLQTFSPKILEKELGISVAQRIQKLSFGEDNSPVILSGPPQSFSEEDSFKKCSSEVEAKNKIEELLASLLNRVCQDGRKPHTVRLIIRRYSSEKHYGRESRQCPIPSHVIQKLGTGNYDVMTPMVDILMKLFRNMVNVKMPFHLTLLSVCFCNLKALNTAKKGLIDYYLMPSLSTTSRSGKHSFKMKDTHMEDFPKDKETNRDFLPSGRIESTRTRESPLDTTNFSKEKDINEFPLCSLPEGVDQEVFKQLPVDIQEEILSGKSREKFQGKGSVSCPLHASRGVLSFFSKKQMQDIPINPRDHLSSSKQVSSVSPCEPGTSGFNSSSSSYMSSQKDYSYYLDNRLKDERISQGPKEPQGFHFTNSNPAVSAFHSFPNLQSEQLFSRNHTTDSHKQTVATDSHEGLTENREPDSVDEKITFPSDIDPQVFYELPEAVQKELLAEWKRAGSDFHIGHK
# Among all 390,000 compounds or so, about 4,000 (1%) were called active. The inconclusive results got no clear call from the source; some entries with a clear call stand among them for comparison. Calls come from the whole dose curve; as a rule, active = well fitted inhibition curve with a large enough effect; inconclusive = small, poorly fitted or top-dose-only effect, or another doubt; inactive = no such curve, though single readings can be large or run the other way. A potency beside an inconclusive call is a rough fit, not a confirmed value.
# Biological target: DNA polymerase iota (Homo sapiens) (UniProt Q9UNA4)
# Test: qHTS for Inhibitors of Polymerase Iota
# Conditions: Pol iota fluorescent replication assay, 10 min; series mostly up to 115 µM; activity, negative = inhibition: at the top concentration
# Procedure, shortened: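 Pol iota at 10 nM preincubated 15 min with compounds at room temperature; reaction started with fluorescent substrate, 50 nM final. Fluorescence read kinetically at 0 and 10 min; buffer-only wells as negative control.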
# Potency is the fitted concentration of half-maximal effect.
SMILES,Potency,"activity, negative = inhibition"
CC(=O)Nc1cccc(NC(=O)CSc2ccc(-c3sc(-c4ccccc4)nc3C)nn2)c1,"inconclusive: 56.2 µM [inhibitor, partial curve, poor fit]",–
CCOc1cc(C(=O)NCc2ccccc2)ccc1OCC(=O)N1CCCCC1,"inconclusive: 44.7 µM [inhibitor, partial curve, poor fit]",–
O=C(Cc1ccccc1F)Nc1ccc(S(=O)(=O)N2CCCC2)cc1,"inconclusive: 89.1 µM [inhibitor, single point]",–
CCCCc1cc(=O)oc2cc(OCC(=O)N3CCc4ccccc43)ccc12,"inconclusive: 39.8 µM [inhibitor, single point]",–
COc1cc(C2Nc3ccccc3-c3nnc(SCc4ccc(C)cc4)nc3O2)cc(OC)c1O (stereo not drawn),"inconclusive: 28.2 µM [inhibitor, partial curve]",–
O=C1COc2ccc(C(=O)CCl)cc2N1,"inconclusive: 28.2 µM [inhibitor, single point]",–
COC(=O)c1sccc1NC(=O)c1cc(C)on1,"inconclusive: 89.1 µM [inhibitor, single point]",–
Cc1ccc(Nc2cc(C)c(C#N)c3nc4ccccc4n23)c(C)c1,"inconclusive: 89.1 µM [inhibitor, single point]",–
CCc1ccc(CNC(=O)c2cnc3c(C)cccn3c2=O)cc1,"inconclusive: 100 µM [inhibitor, single point]",–
C=CCSc1nccc(-c2nn(-c3ccc(C)cc3)ccc2=O)n1,"inconclusive: 89.1 µM [inhibitor, partial curve, poor fit]",–
CCN1C=C(Cc2cccs2)C2=C(C1)C(c1cccs1)C(C#N)=C(N)O2 (stereo not drawn),"inconclusive: 17.8 µM [inhibitor, partial curve, poor fit]",–
COc1ccc(/C=C/c2sc3ccccc3[n+]2CCCCI)cc1OC,"inconclusive: 5.01 µM [inhibitor, full curve]",–
Cc1ccc(CCNC(=O)C23CN(Cc4ccccc4)CC2C(c2ccc([N+](=O)[O-])cc2)=NO3)cc1 (stereo not drawn),"inconclusive: 79.4 µM [inhibitor, single point]",–
Cc1cc(C)nc(N2CCCC(C(=O)NCC(c3ccccc3)c3ccccc3)C2)n1 (stereo not drawn),–,inactive: 11.9%
O=c1cc(CSc2nnc(-c3cccnc3)n2-c2ccccc2F)nc2sccn12,"inconclusive: 56.2 µM [inhibitor, partial curve, poor fit]",–
CCCN(C(=O)Nc1cn(CC(C)C)c(=O)c2ccccc12)c1ccc(F)cc1,"inconclusive: 44.7 µM [inhibitor, single point]",–
Cc1cc(NC(=O)c2cccn2-c2nnc(N3CCCCC3)s2)ccc1Br,"inconclusive: 79.4 µM [inhibitor, single point]",–
O=C(OCc1ccc(F)cc1)c1cc(S(=O)(=O)N2CCCCC2)ccc1N1CCOCC1,–,inactive: 30.8%
CC(C)C(=O)OCc1cc(=O)n2nc(C3CC3)sc2n1,–,inactive: 29.8%
Cc1cc(Br)c(S(=O)(=O)n2nnc3ccccc32)cc1C,"inconclusive: 31.6 µM [inhibitor, partial curve, poor fit]",–
Cc1cnc(C(=O)OCC(=O)Nc2sc3c(c2C#N)CCC3)cn1,"inconclusive: 10 µM [inhibitor, full curve]",–

# 4 entries from above, tab-delimited:
SMILES	Potency	activity, negative = inhibition
O=C(Cc1ccccc1F)Nc1ccc(S(=O)(=O)N2CCCC2)cc1	inconclusive: 89.1 µM [inhibitor, single point]	–
COc1cc(C2Nc3ccccc3-c3nnc(SCc4ccc(C)cc4)nc3O2)cc(OC)c1O (stereo not drawn)	inconclusive: 28.2 µM [inhibitor, partial curve]	–
Cc1ccc(CCNC(=O)C23CN(Cc4ccccc4)CC2C(c2ccc([N+](=O)[O-])cc2)=NO3)cc1 (stereo not drawn)	inconclusive: 79.4 µM [inhibitor, single point]	–
CC(C)C(=O)OCc1cc(=O)n2nc(C3CC3)sc2n1	–	inactive: 29.8%

# The results go on.

SMILES,Potency,"activity, negative = inhibition"
O=C(NCCc1ccc(Cl)cc1)c1ccc(CSCc2cccc(Cl)c2)o1,–,inactive: -4.21%
CC(=O)C1=C(S(=O)(=O)c2ccc(C)cc2)CS(=O)(=O)C1,"inconclusive: 22.4 µM [inhibitor, single point]",–
Cc1cnc(NC(=O)C2COc3ccccc3O2)s1 (stereo not drawn),"inconclusive: 39.8 µM [inhibitor, partial curve, poor fit]",–
Cc1c(NS(=O)(=O)c2cc(C(=O)NCc3ccco3)cc(Cl)c2Cl)c(=O)n(-c2ccccc2)n1C,"inconclusive: 20 µM [inhibitor, single point]",–
O=C(/C=C/Nc1ccccc1C(=O)O)c1cccs1,–,inactive: 22%
COc1ccc(/C=C/C(=O)OCC(=O)NC2CCCCCC2)cc1OC,active: 89.1 µM,–
CCc1ccc(CC2S/C(=C(\C#N)C(C)=O)NC2=O)cc1 (stereo not drawn),"inconclusive: 17.8 µM [inhibitor, partial curve, poor fit]",–
COc1ccc(C(=O)NN2C(=O)C3C(c4ccccc4)C=CC(c4ccccc4)C3C2=O)cc1 (stereo not drawn),"inconclusive: 89.1 µM [inhibitor, partial curve, poor fit]",–
COc1ccc(N2CCC(CNC(=O)Nc3ccc(OC)cc3OC)C2)cc1 (stereo not drawn),"inconclusive: 28.2 µM [inhibitor, partial curve, poor fit]",–
NC(=O)CSc1nc2ccc(NC(=O)COc3ccccc3Cl)cc2s1,"inconclusive: 89.1 µM [inhibitor, single point]",–
COc1ccc(-c2nn(-c3ccccc3)cc2C(=O)O)cc1,–,inactive: 8.06%
Cc1cccc(OCCCn2c(CCNC(=O)C3CCCCC3)nc3ccccc32)c1,"inconclusive: 89.1 µM [inhibitor, single point]",–
CCOc1cc(/C=C2\N=C(SCC)SC2=O)cc([N+](=O)[O-])c1OC(C)=O,"inconclusive: 3.16 µM [inhibitor, full curve, poor fit]",–
CCSc1nnc(NC(=O)/C=C/c2ccco2)s1,"inconclusive: 28.2 µM [inhibitor, partial curve, poor fit]",–
COc1ccc(Cl)cc1NC(=O)c1cc(S(=O)(=O)N(C)Cc2ccccc2)ccc1F,"inconclusive: 100 µM [inhibitor, partial curve, poor fit]",–
CCn1c(SCC(=O)N2CCCCC2)nnc1-c1ccc(S(=O)(=O)N2CCN(C)CC2)cc1,"inconclusive: 31.6 µM [inhibitor, single point]",–
O=C(CN1C(=O)/C(=C2\SC(=S)N(CCS(=O)(=O)O)C2=O)c2ccccc21)Nc1cccc(Br)c1,"inconclusive: 0.708 µM [inhibitor, full curve, poor fit]",–
Cc1c(C(=O)NNC(=O)c2csc(N3CCOCC3)n2)oc2ccccc12,"inconclusive: 50.1 µM [inhibitor, partial curve]",–
CCc1ccccc1NC(=O)CCC(=O)N1CC(C)Oc2ccc(C)cc21 (stereo not drawn),"inconclusive: 89.1 µM [inhibitor, single point]",–
NC(=O)N/N=C/c1c(O)ccc2oc3c(c12)CCCC3,–,inactive: 51.5%
CC(C)OCC(O)CN1CCNCC1 (stereo not drawn),"inconclusive: 14.1 µM [inhibitor, partial curve, poor fit]",–

SMILES,Potency,"activity, negative = inhibition"
CCOc1ccccc1CNS(=O)(=O)c1cc2c(cc1C)NC(=O)CO2,–,inactive: -0.747%
O=C(CN1C(=O)c2ccccc2S1(=O)=O)Nc1ncc(Cl)cc1Cl,"inconclusive: 14.1 µM [inhibitor, partial curve, poor fit]",–
COc1cc(Cl)c(CNC[C@H]2O[C@@H](n3ccc(=O)[nH]c3=O)[C@H](O)[C@@H]2O)c(Cl)c1O,"inconclusive: 1 µM [inhibitor, full curve, poor fit]",–
CC1CCC(NC(=O)C2(C)Cc3ccccc3C(=O)N2Cc2ccc(Cl)cc2)CC1 (stereo not drawn),–,inactive: 11.6%
CCOC(=O)c1c(C)oc2c1c1c(c3ccccc32)OCN(Cc2ccccn2)C1,"inconclusive: 7.08 µM [inhibitor, partial curve, poor fit]",–
CCOc1ccc(C(=O)NCc2ccco2)cc1,"inconclusive: 44.7 µM [inhibitor, partial curve, poor fit]",–
COc1ccc(C)cc1NC(=O)C(OC(=O)CNC(=O)c1cc(C)cc(C)c1)c1ccccc1 (stereo not drawn),–,inactive: 46.1%
CCOC(=O)[C@H]1[C@H]2COc3ccc(C)cc3[C@@H]2N2C(=O)c3cc(F)c(F)cc3NC(=O)[C@@]12C,"inconclusive: 39.8 µM [inhibitor, single point]",–
COC(=O)c1c(NC(=O)CSc2nnc(-c3ccco3)n2Cc2ccccc2)sc(C)c1C,"inconclusive: 89.1 µM [inhibitor, partial curve]",–
CC(=O)c1cccc(NC(=O)CN2C(=O)CC(c3ccc(C)cc3C)=Nc3ccccc32)c1,"inconclusive: 100 µM [inhibitor, partial curve, poor fit]",–
O=C(O/N=C\c1ccc(N2CCOCC2)c([N+](=O)[O-])c1)c1ccccc1Cl,"inconclusive: 79.4 µM [inhibitor, single point]",–
COc1ccc(C2=NCC(CSc3nccc(=O)[nH]3)S2)cc1 (stereo not drawn),"inconclusive: 12.6 µM [inhibitor, partial curve, poor fit]",–
CC[N+]1=C(C)C(C)(C)c2cc(C)ccc21,"inconclusive: 44.7 µM [inhibitor, partial curve]",–
CC(C)C[C@H]1CN=C(N(C)C)N1CC1CCCC1,"inconclusive: 10 µM [inhibitor, partial curve]",–
COc1ccc(C(=O)c2cc3ccc(O)cc3oc2=O)cc1,"inconclusive: 63.1 µM [inhibitor, partial curve, poor fit]",–
CCC(C)CCN1C(N(C)C)=NC[C@@H]1CC(C)C (stereo partly drawn),"inconclusive: 15.8 µM [inhibitor, full curve]",–
CN(CC(=O)Nc1ccccc1Cl)C(=O)c1cccc(-n2cccc2)c1,–,inactive: -7.66%
COc1cc(Br)c(C(=O)c2nccc3cc(OC)c(OC)cc23)cc1OC,active: 1.78 µM,–
CC(C)NC(=O)c1ccc2c(c1)nc1n2CCCCC1,–,inactive: -7.95%
O=C(O)c1ccc(/C=N/NC(=O)c2cc(-c3ccc4c5c(cccc35)CC4)n[nH]2)cc1,"inconclusive: 56.2 µM [inhibitor, partial curve, poor fit]",–
CCOC(=O)C(=Cc1ccccc1OC)C(=O)OCC,"inconclusive: 17.8 µM [inhibitor, partial curve, poor fit]",–
